In US6093838A, “Amines substituted with a dihydro-benzofuranyl or with a dihydro-isobenzofuranyl group, an aryl or heteroaryl group and an alkyl group, having retinoid-like biological activity” (Allergan Sales, Inc., priority 1999, dated 2000):
At least one compound was matched to its structure with a doubt left.

Columns and labels:
RXRβ = test: ligand binding assay, RXRβ; details: read-out: RXR Bind Ki β
Source text: (§1) Other assays described below, measure the ability of the compounds of the present invention to bind to, and/or activate various retinoid receptor subtypes. When in these assays a compound binds to a given receptor subtype and activates the transcription of a reporter gene through that subtype, then the compound is considered an agonist of that receptor subtype. […] In the below described assays the ability of the compounds to bind to RARα, RARβ, RARγ, RXRα, RXRβ and RXRγ receptors, and the ability or inability of the compounds to activate transcription of a reporter gene through these receptor subtypes can be tested. […] However, some of the compounds of the invention may behave as retinoid antagonists or partial antagonists and/or as inverse agonists. Because of the complex distribution of the different retinoid receptors in various organs of the mammalian body partial agonists and partial antagonists and compounds which have the characteristics of both may lend themselves to particularly useful therapeutic applications and may avoid serious side effects of conventional retinoid drugs. […]

RXRγ = test: ligand binding assay, RXRγ; details: read-out: RXR Bind Ki γ
Source text: as §1

For CC(C)c1cc(N(c2ccc(C(=O)O)cc2)C(C)C)cc2c1OCC2(C)C [Compound 43], the Ki (RXRβ) was > 1000 nM and the Ki (RXRγ) was > 1000 nM.
